Drawing on PubChem BioAssay AID248 (DTP/NCI, 2004), this text covers survivor count and T/C for 23 compounds.

The assay deals with L1210 leukemia ip in BDF1 mice, survival T/C. The experiment in a line: NCI In Vivo Anticancer Drug Screen. Data for tumor model L1210 Leukemia (intraperitoneal) in B6D2F1 (BDF1) mice. To be noted: T/C endpoint: mean survival time, higher T/C = longer survival.
The mark [1] stands for this setting: dose: 400.0 mg/kg/injection, schedule: Q01DX009 (ip), vehicle: Klucel (hydroxypropylcellulose) (HPC).
The mark [2] stands for this setting: dose: 200.0 mg/kg/injection, schedule: Q04DX003 (ip), vehicle: Klucel (hydroxypropylcellulose) (HPC).
Setting [3] is: dose: 100.0 mg/kg/injection, schedule: Q01DX009 (ip), vehicle: Klucel (hydroxypropylcellulose) (HPC).
Setting [4] is: dose: 200.0 mg/kg/injection, schedule: Q01DX009 (ip), vehicle: Klucel (hydroxypropylcellulose) (HPC).
Setting [5] is: dose: 400.0 mg/kg/injection, schedule: Q01DX001 (ip), vehicle: saline.
The mark [6] stands for this setting: dose: 200.0 mg/kg/injection, schedule: Q01DX001 (ip), vehicle: saline.

The list shows only some results of the screen, not a fair sample: it gathers tests that were run many times, whatever their T/C, doses with no T/C, and many T/C values between a quarter and a half above the control. Further doses and runs are listed elsewhere. T/C gives the treated animals as a percentage of the vehicle group. Some doses have a count of surviving animals in place of a T/C: the source holds a T/C of zero for them, seemingly a mark for toxic or unscored doses. Some doses without a T/C left all or most animals alive at the check, yet need not have been tolerated: survival well below the control is almost never listed, so the zero probably covers shortened survival too. Counts of survivors are from the toxicity check (mostly the fifth day) where no day follows; animals may have died later. Schedules are NCI's codes, taken here to give the interval after Q, in days (D) or hours (H), and the number of doses after X. Some schedule codes hold Z or #, which are not explained here. Some structures stand for samples that the source files as different forms (salt, stereo form or complex); doses refer to the form tested. Where survival is the endpoint, this PubChem deposit counts one and a half times the control or more as active, and values a quarter to a half above the control carry no call in these data; other NCI protocols may use other cut-offs. Some entries were tested several times; their values stand side by side, smallest first.

Turning to `CCN=C(c1ccc(NC(=O)c2ccc(C(=O)Nc3ccc(C(=NCC)N(CC)C(=O)NCCCl)cc3)cc2)cc1)N(CC)C(=O)NCCCl`, the survivor count (dose: 15.0 mg/kg/injection, schedule: Q01DX015 (ip), vehicle: methylcellulose (MC)) is 1 of 6; the survivor count (dose: 30.0 mg/kg/injection, schedule: Q01DX015 (ip), vehicle: methylcellulose (MC)) is 0 of 6; the survivor count (dose: 62.0 mg/kg/injection, schedule: Q01DX015 (ip), vehicle: methylcellulose (MC)) is 0 of 6; the survivor count (dose: 125.0 mg/kg/injection, schedule: Q01DX015 (ip), vehicle: methylcellulose (MC)) is recorded as 0 of 6; the survivor count (dose: 250.0 mg/kg/injection, schedule: Q01DX015 (ip), vehicle: methylcellulose (MC)) is 0 of 6; the survivor count (dose: 500.0 mg/kg/injection, schedule: Q01DX015 (ip), vehicle: methylcellulose (MC)) is recorded as 0 of 6.
As to `CS(=O)(=O)N(CC(=O)O)Cc1cccc(Br)c1`, the survivor count (dose: 400.0 mg/kg/injection, schedule: Q01DX005 (ip), vehicle: other) is listed as 1 of 3.
Regarding `COC(=O)Nc1cccc2c1C=CC(C#N)N2C(=O)OC` (configuration not stated), the survivor count under setting [1] is 1 of 6.
Regarding `CSc1ccc(NC(=O)Nc2ccc(N=Nc3ccccc3)cc2)cc1`, the survivor count (dose: 100.0 mg/kg/injection, schedule: Q04DX003 (ip), vehicle: Klucel (hydroxypropylcellulose) (HPC)) was 6 of 6; the survivor count under setting [2] is recorded as 6 of 6; the survivor count (dose: 255.0 mg/kg/injection, schedule: Q01DX009 (ip), vehicle: saline with Tween-80) is given as 1 of 6; the survivor count (dose: 385.0 mg/kg/injection, schedule: Q01DX009 (ip), vehicle: saline with Tween-80) is 0 of 6; the survivor count (dose: 400.0 mg/kg/injection, schedule: Q01DX001 (ip), vehicle: other) is 1 of 6.
In the case of `Nc1cccc(NC(=O)Nc2ccccc2)c1`, the survivor count (dose: 200.0 mg/kg/injection, schedule: Q04DX002 (ip), vehicle: Klucel (hydroxypropylcellulose) (HPC)) is listed as 3 of 3.
Regarding `C=C1C(=O)OC2C1CCC(C)C1C=CC(=O)C12C` (configuration not stated), the survivor count (dose: 400.0 mg/kg/injection, schedule: Q01DX009 (ip), vehicle: saline) was 4 of 6.
In the case of `OC1CCN(C2(c3ccccc3)CCCCC2)CC1`, the survivor count (dose: 400.0 mg/kg/injection, schedule: Q04DX002 (ip), vehicle: Klucel (hydroxypropylcellulose) (HPC)) is 2 of 3.
Regarding `OCCCCN=Cc1ccccc1O.OCCCCN=Cc1ccccc1O.[Cu]`, the survivor count is recorded as 1 of 6 (dose: 150.0 mg/kg/injection, schedule: Q01DX001 (ip), vehicle: other) and 1 of 6 (dose: 300.0 mg/kg/injection, schedule: Q01DX001 (ip), vehicle: other).
`CCCCC(CC)CC1C(=O)NC(=S)NC1=O` (configuration not stated): the survivor count (dose: 300.0 mg/kg/injection, schedule: Q01DX001 (ip), vehicle: saline) was 2 of 6.
Consider `CN(CCN(C)P(=O)(N1CC1)N1CC1)P(=O)(N1CC1)N1CC1`, for which the T/C (dose: 10.0 mg/kg/injection, schedule: Q01DX Z (ip), vehicle: saline) is 138 % of control.
In the case of `Nc1cc(SC(c2ccccc2)c2ccccc2)c(N)c(N)n1`, the survivor count (dose: 300.0 mg/kg/injection, schedule: Q01DX001 (ip), vehicle: DMSO) was 0 of 3.
With `O=[N+]([O-])c1cc(Cl)cc2c1nc(NCCO)c1ccccc12`, the survivor count runs as follows: under setting [3], 6 of 6; under setting [2], 6 of 6; (dose: 400.0 mg/kg/injection, schedule: Q04DX003 (ip), vehicle: Klucel (hydroxypropylcellulose) (HPC)) 3 of 6.
`COc1cccc2c1C(=O)c1c(O)c3c(c(O)c1C2=O)C[C@@](O)(C(C)=O)C[C@@H]3OC1CC(NC(=S)Nc2ccc(F)cc2)C(O)C(C)O1` (some centres not stated): the T/C is 138 % of control (dose: 21.0 mg/kg/injection, schedule: Q04DX003 (ip), vehicle: other); 130 % of control (dose: 32.0 mg/kg/injection, schedule: Q04DX003 (ip), vehicle: other); 127 % of control (dose: 32.0 mg/kg/injection, schedule: Q04DX003 (ip), vehicle: water); 130 % of control (dose: 48.0 mg/kg/injection, schedule: Q04DX003 (ip), vehicle: other).
Consider `NS(=O)(=O)c1ccc(S(=O)(=O)N2CCCCC2)cc1`, for which the survivor count under setting [1] is given as 5 of 6.
As to `[N-]=[N+]=C1C=CC=C1C(=O)O`, the survivor count was 2 of 6 under setting [3], 0 of 6 under setting [4] and 0 of 6 under setting [1].
For `O=C(COc1ccc(Cl)c(Cl)c1)Nc1ccc[n+](Cc2c(Cl)cccc2S(=O)(=O)F)c1`, under setting [5], the survivor count was 2 of 6.
With `Cc1cc(N=Nc2ccccc2)c2cccnc2c1N`, the survivor count (dose: 200.0 mg/kg/injection, schedule: Q04DX003 (ip), vehicle: DMSO) is 6 of 6.
Regarding `O=c1[nH]cnc2[nH]ncc12`, the survivor count by setting is: (dose: 200.0 mg/kg/injection, schedule: Q01DX001 (ip), vehicle: saline with Tween-80) 0 of 6; under setting [6], 2 of 4; (dose: 400.0 mg/kg/injection, schedule: Q01DX001 (ip), vehicle: carboxymethylcellulose (CMC)) 1 of 4; (dose: 400.0 mg/kg/injection, schedule: Q01DX001 (ip), vehicle: saline with Tween-80) 0 of 6; under setting [5], 0 of 4.
On to `CCCCNC(C)(C)C(SS)c1ccco1` (configuration not stated), for which the survivor count is on record as 1 of 6 (dose: 225.0 mg/kg/injection, schedule: Q01DX009 (ip), vehicle: saline with Tween-80); 1 of 6 (dose: 335.0 mg/kg/injection, schedule: Q01DX009 (ip), vehicle: saline with Tween-80); 4 of 6 (dose: 400.0 mg/kg/injection, schedule: Q04DX003 (ip), vehicle: alcohol).
Consider `CCNc1nncs1`, for which the T/C by setting is: (dose: 34.5 mg/kg/injection, schedule: Q01DX Z (ip), vehicle: carboxymethylcellulose (CMC)) 126 % of control; (dose: 37.0 mg/kg/injection, schedule: Q01DX Z (ip), vehicle: saline) 132 % of control; (dose: 64.5 mg/kg/injection, schedule: Q02DX010 (ip), vehicle: carboxymethylcellulose (CMC)) 125 and 135 % of control; (dose: 69.0 mg/kg/injection, schedule: Q01DX Z (ip), vehicle: carboxymethylcellulose (CMC)) 115, 116, 122, 143 % of control; (dose: 90.0 mg/kg/injection, schedule: Q01DX015 (ip), vehicle: saline) 129 % of control; (dose: 96.0 mg/kg/injection, schedule: Q02DX010 (ip), vehicle: carboxymethylcellulose (CMC)) 126 % of control. Besides, the T/C runs as follows: (dose: 96.75 mg/kg/injection, schedule: Q02DX010 (ip), vehicle: carboxymethylcellulose (CMC)) 134 and 135 % of control; (dose: 135.0 mg/kg/injection, schedule: Q01DX015 (ip), vehicle: saline) 135 % of control; (dose: 150.0 mg/kg/injection, schedule: Q02DX010 (ip), vehicle: carboxymethylcellulose (CMC)) 135 and 139 % of control; (dose: 225.0 mg/kg/injection, schedule: Q02DX010 (ip), vehicle: carboxymethylcellulose (CMC)) 124, 128, 133, 165 % of control; (dose: 337.5 mg/kg/injection, schedule: Q02DX010 (ip), vehicle: carboxymethylcellulose (CMC)) 125 and 136 % of control. The survivor count is on record as 2 of 6 (dose: 300.0 mg/kg/injection, schedule: Q01DX Z (ip), vehicle: saline); 2 of 6 under setting [5]; 6 of 10 (dose: 900.0 mg/kg/injection, schedule: Q01DX001 (ip), vehicle: saline); 3 of 7 (dose: 1200.0 mg/kg/injection, schedule: Q01DX Z (oral), vehicle: saline); 1 of 10 (dose: 1350.0 mg/kg/injection, schedule: Q01DX001 (ip), vehicle: saline).
Regarding `CC/C=C(CC)/C(CC)=C(\Br)CC`, the survivor count (dose: 400.0 mg/kg/injection, schedule: Q04DX003 (ip), vehicle: saline) is listed as 6 of 6.
Consider `COCc1nnc2ncnc(OC)c2n1`, for which the survivor count runs as follows: under setting [6], 0 of 6; under setting [5], 0 of 6.
In the case of `CCCCCP(=O)(CCCC)CCCCC`, the survivor count under setting [4] is reported as 0 of 3.
